Assay results as given in patent US20190345138A1, “HETEROCYCLIC AMIDES AS KINASE INHIBITORS” (GlaxoSmithKline Intellectual Property Development Limited, priority 2016, published 2019).
“Also recorded” adds a separate entry of the source.

System: db/db mice
Test: glucose homeostasis in db/db mice
Format: in vivo, mouse
Details: 100 mg/kg/day in chow, non-fasted and fasted, versus normal chow
Description: We therefore investigated the ability of our small molecule RIPK1 inhibitor to improve glucose homeostasis in a diabetic animal model. Mice genetically deficient for the leptin receptor (db/db mice; Jackson Labs, BKS.Cg-Dock7m+/+Leprdb/J) are a widely used animal model of insulin resistance and diabetes. In our study, 4-week old male db/db mice were acclimated for a period of one week. At this point, when the mice were 5 weeks of age, the study was started. Mice were then divided into two group (n=10/group) and baseline measurements of non-fasted blood glucoses (using a glucometer) and body weight were taken. After baseline measurements, one group of mice was fed chow containing RIPK1 inhibitor (100 mg/kg/day, n=10) and the other remained on normal chow (n=10). Animals remained on these diets for 6 weeks. Additional measurements of non-fasted blood glucose and body weight were taken 2 and 4 weeks after study start. At week 8, mice were fasted overnight (16 hours) and fasted blood glucose and body weight were measured on the following day.

N#Cc1cc(N2CCC(C(=O)N3N=CC[C@H]3c3cc(F)cc(F)c3)CC2)ncn1 [Example 78, (S)-6-(4-(5-(3,5-difluorophenyl)-4,5-dihydro-1H-pyrazole-1-carbonyl)piperidin-1-yl)pyrimidine-4-carbonitrile]
body weight: without altering body weight; also recorded: no difference between groups
